{
  "source": "paper doi:10.1101/2025.10.26.684598",
  "target": "T1, YokF of BSB1 expressed in B. subtilis PY79 (sacA::yokF_(BSB1)) (B. subtilis) (UniProt O32001)",
  "T1 sequence": "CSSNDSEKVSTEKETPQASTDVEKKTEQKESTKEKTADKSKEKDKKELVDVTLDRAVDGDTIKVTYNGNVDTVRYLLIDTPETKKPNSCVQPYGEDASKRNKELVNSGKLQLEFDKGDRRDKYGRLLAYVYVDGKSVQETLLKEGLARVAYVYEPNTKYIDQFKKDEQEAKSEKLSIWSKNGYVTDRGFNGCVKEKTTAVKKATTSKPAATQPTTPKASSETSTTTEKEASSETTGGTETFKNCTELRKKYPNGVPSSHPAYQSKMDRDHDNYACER",
  "assay": "affinity purification with mass spectrometry",
  "note": "These are yes or no findings as the source states them, for the method shown. Binding seen in cells or lysates may run through a third protein. A yes stands for co-enrichment or nearness to the bait. Other partners may have been found.",
  "data": [
    {"binder": "FlhA (endogenous, B. subtilis PY79) (protein, UniProt P35620 1-677) MSTRDLSVLISVVLIVAMLVIPFPPWLLSILIIINISLALIVLLTTMNMQEALQFSIFPSLLLLLTLFRLGLNVSTTRSILSHGEGGKVVETFGNFVVGGNVLVGLVVFIILIIIQFIVITKGAERVSEVAARFTLDAMPGKQMSIDADLNAGMITEQEAKHRREKVAREADFYGAMDGASKFVKGDAIAGIIIVMINIIFGIVIGMLQQGMSIQEAASHFTMLTVGDGIVSQIPALLISTATGIVVTRAASEGNLGHDITGQLFAYPKLLYVAAATIMLLGIFTPIGILLTGPLAGLLAFGAYTLSKSGKEKEEVDEILEEEAEVDELKSPESVVQLLHIDPIEFEFGYGLIPLADANQGGDLLDRIVMIRRQLALELGLVIPVVRIRDNIALQPNEYRLKIKGNEVAKGELLLDHYLAMSPTPEDDLIEGIETVEPSFGLPAKWISEAVKDEADMLGYTVVDPASVVSTHITEKIKQHAHELIGRQETKQLIDHLKESYPVLVEEVTPNPLSVGDIQKVLAKLLKEKVSIRNLVTIFETLADYGKLTTDSDLLTEYTRQALAKQITAQFAKENEVLKVVTCSGRVEKAIADGVQQTEHGNYLSLEPDISESIVRSVAKEAEQLSLRQETAILLCSPPVRMYVKQLLERYFPDLPVLSYNELEANVEVQSIGVVDI", "values": [
      {"measurement": "binding", "result": "binds"}
    ]}
  ]
}
